# Reference: PubChem BioAssay AID504847 (National Center for Advancing Translational Sciences (NCATS), 2011)
# By UniProt entry, the sequences of proteins in these tests, tags left out. Where a name states a change or a piece, a line headed by the entry shows the natural chain unless it says otherwise.
# UniProt P11473: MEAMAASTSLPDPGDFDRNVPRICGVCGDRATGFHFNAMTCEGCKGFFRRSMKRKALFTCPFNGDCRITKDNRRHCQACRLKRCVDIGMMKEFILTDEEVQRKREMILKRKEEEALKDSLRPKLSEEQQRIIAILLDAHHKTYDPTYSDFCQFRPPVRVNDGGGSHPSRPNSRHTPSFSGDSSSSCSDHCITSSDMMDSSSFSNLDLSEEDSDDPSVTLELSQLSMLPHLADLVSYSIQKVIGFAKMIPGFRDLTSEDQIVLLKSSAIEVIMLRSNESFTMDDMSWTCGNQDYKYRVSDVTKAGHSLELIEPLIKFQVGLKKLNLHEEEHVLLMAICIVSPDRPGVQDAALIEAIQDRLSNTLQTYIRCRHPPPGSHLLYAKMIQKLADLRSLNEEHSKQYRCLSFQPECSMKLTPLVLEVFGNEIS
# “And” between values parts separate entries of the source, which are not always exact repeats. Identical values can stand only once. Out of some 400,000 compounds screened, about 3,700 (0.93%) were called active. The shares of active, inactive and inconclusive entries below differ from those in the screen. Calls come from the whole dose curve; as a rule, active = well fitted inhibition curve with a large enough effect; inconclusive = small, poorly fitted or top-dose-only effect, or another doubt; inactive = no such curve, though single readings can be large or run the other way. Where the call is inconclusive, the potency comes from a doubtful curve fit.
# Target: Vitamin D3 receptor (Homo sapiens) (UniProt P11473)
# Test: Inhibitors of the vitamin D receptor (VDR): qHTS
# Details: VDR-SRC2-3 peptide fluorescence polarization, 2 h; max response, negative = inhibition: stronger effect = lower value
# Summary of the method: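 Signal is fluorescence polarization, reporting how far test compounds block the interaction of VDR with the SRC2-3 coregulator peptide after a 2 h room-temperature incubation.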
# % is set by controls: 0 for no effect and ±100 for the full control effect; potency is the fitted concentration of half-maximal effect.
Compound,Potency,"max response, negative = inhibition"
O=C(O)/C=C\C(=O)Nc1ccc(N2CCN(c3ccc(Cl)cc3)CC2)cc1,"inconclusive: 25.1 µM [inhibitor, partial curve, poor fit]",
C1CCC(C(CC2CCCCN2)C2CCCCC2)CC1 (stereo not given),"inconclusive: 44.7 µM [inhibitor, partial curve]",
CC1CN(C(=O)CCC(=O)N2CCCCC2)c2ccccc2O1 (stereo not given),"inconclusive: 100 µM [inhibitor, single point]",
O=C(CCS(=O)(=O)c1ccc2c(c1)NC(=O)CS2)NCCc1ccc(Cl)cc1,"inconclusive: 39.8 µM [inhibitor, single point]",
CCCOC(=O)c1ccc(NC(=O)CSC2=Nc3ccccc3C3CC=NN23)cc1 (stereo not given),"inconclusive: 56.2 µM [inhibitor, single point]",
COc1ccc(NC(=O)C2(S(=O)(=O)c3ccc(C)cc3)CC2)c(OC)c1,"inconclusive: 44.7 µM [inhibitor, partial curve, poor fit]",
Cc1nnnn1/C(=C\c1ccccc1)C(=O)OCC(=O)NC1CCCCC1,"inconclusive: 56.2 µM [inhibitor, partial curve, poor fit]",
CC(/C=N/n1c(-c2ccc(C)cc2)n[nH]c1=S)=C\c1ccco1,"inconclusive: 63.1 µM [inhibitor, partial curve, poor fit]",
CCOc1ccc(NC(=O)CCN2C(=O)C3CCCCC3C2=O)cc1OCC (stereo not given),,inactive: -11.8%
FC(F)(F)c1ccccc1-c1cncnc1NCCN1CCOCC1,active: 44.7 µM,
COc1ccc(S(=O)(=O)Nc2ccc(N(C)C(C)=O)cc2)cc1,,inactive: 7.16%
N#CC1=C(S)N(c2ccccc2)C(c2ccc(-c3cc(Cl)ccc3Cl)o2)NC1=O (stereo not given),active: 79.4 µM,
COc1[nH]c(/N=C/c2ccco2)c(C#N)c1C#N,"inconclusive: 56.2 µM [inhibitor, partial curve, poor fit]",
Cc1ccn2c(Nc3ccc4c(c3)OCO4)c(-c3ccc(C)o3)nc2c1,"inconclusive: 39.8 µM [inhibitor, partial curve, poor fit]",
Cc1c(C(=O)N2CCCCC2)c(S(=O)(=O)NCc2ccccc2Cl)c(C)n1C,"inconclusive: 25.1 µM [inhibitor, partial curve, poor fit]",
Cc1cc(C)cc(NC(=O)CSc2oc(-c3cccs3)nc2S(=O)(=O)c2ccc(Br)cc2)c1,,inactive: -0.452%
CCc1ccc(NCc2cc3ccc(OC)cc3n(CC(=O)Nc3ccccc3OC)c2=O)cc1,,inactive: 0.712%
COC(=O)Cn1c(CCS(=O)(=O)c2ccc(C)c(C)c2)nc2ccccc21,,inactive: 2.15%
COC(=O)c1ccc(OC)c(OC)c1Cl,"inconclusive: 70.8 µM [inhibitor, partial curve, poor fit]",
COc1ccc(NC(=O)/C(Cl)=C(/Cl)S(=O)Cc2ccccc2)cn1 (stereo not given),active: 14.1 µM,
O=C(C1=C(O)C(=O)N(c2nc3ccc(Cl)cc3s2)C1c1ccco1)c1ccco1 (stereo not given),"inconclusive: 28.2 µM [inhibitor, partial curve, poor fit]",
COc1ccc(Nc2nc(-c3cccnc3)nc3ccccc23)cn1,active: 70.8 µM,

Compound,Potency,"max response, negative = inhibition"
CC(C)(C)C(O)(CC#CCN1CCCC1)c1ccccc1 (stereo not given),,inactive: -3.17%
COc1ccc(C(=S)NC2CCCCC2)cc1,active: 89.1 µM,
O=C(CCc1ccc(Oc2cc([N+](=O)[O-])cc([N+](=O)[O-])c2)cc1)N1CCCCCC1,"inconclusive: 100 µM [inhibitor, partial curve, poor fit]",
CCc1nnc(NC(=O)CSCc2cc(=O)n3nc(C)sc3n2)s1,"inconclusive: 35.5 µM [inhibitor, partial curve, poor fit]",
CC(C)n1c(SCC(=O)N2c3ccccc3Sc3ccccc32)nc2c1c(=O)n(C)c(=O)n2C,,inactive: 23%
COc1ccc(NC(=O)/C(Cl)=C(/Cl)S(=O)Cc2ccc(Cl)cc2)cn1 (stereo not given),active: 11.2 µM,
Cc1ccc(C)c(CN2C(=O)c3ccccc3S(=O)c3ccc(C(=O)NCc4ccco4)cc32)c1 (stereo not given),,inactive: -0.963%
Cc1ccc(NC(=O)c2cc(-c3ccccc3)nn2-c2ccccc2)cc1,,inactive: 7.44%
CC1CCc2nc(-c3cc4ccc(O)cc4oc3=O)sc2C1 (stereo not given),,inactive: -17.9%
O=C(Cc1ccccc1)Nc1ccc(C(=O)NCc2ccccc2)cc1,"inconclusive: 79.4 µM [inhibitor, single point]",
Cn1cc(/C=N/Nc2ccccc2)c2ccccc21,"inconclusive: 56.2 µM [inhibitor, partial curve, poor fit]",
CCOC(=O)N1CCN(/[N+]([O-])=N/Oc2ccc([N+](=O)[O-])cc2[N+](=O)[O-])CC1,active: 14.1 µM and active: 89.1 µM and active: 44.7 µM,
O=c1c(Cl)c(O)c2cccc3c4ccccc4n1c23,"inconclusive: 79.4 µM [inhibitor, single point]",
O=C(c1ccc2ccccc2n1)N1CCN(S(=O)(=O)c2ccccc2)CC1,"inconclusive: 25.1 µM [inhibitor, partial curve, poor fit]",
COc1ccc(NC(=O)CSc2nc3c(c(-c4cccs4)c2C#N)CN(C)CC3)cc1OC,"inconclusive: 79.4 µM [inhibitor, partial curve, poor fit]",
O=C(O)CCc1ccc(-c2ccccc2)n1-c1cccc(Br)c1,"inconclusive: 79.4 µM [inhibitor, partial curve, poor fit]",
C[C@@H]1CN([C@@H](C)CO)C(=O)Cc2cc(NS(=O)(=O)c3cn(C)cn3)ccc2O[C@@H]1CN(C)C(=O)Nc1ccccc1,"inconclusive: 70.8 µM [inhibitor, partial curve, poor fit]",
Cc1ccc(S(=O)(=O)N[C@@H](Cc2ccccc2)C(=O)CCl)cc1,active: 2.82 µM and active: 25.1 µM and active: 5.62 µM,
O=C(/C=C/NNC(=O)c1ccc(Cl)cc1)c1ccccc1,"inconclusive: 79.4 µM [inhibitor, single point]",
COc1cc(NCc2ccc3nc(N)nc(N)c3c2C)cc(OC)c1OC,active: 8.91 µM and active: 25.1 µM,
Cc1cc(C)c[n+](CC(=O)c2c(C)cc(C)c([N+](=O)[O-])c2C)c1,"inconclusive: 112 µM [inhibitor, partial curve, poor fit]",
CC(/C=C/c1ccc(C)o1)=C\C(=O)O,"inconclusive: 89.1 µM [inhibitor, partial curve, poor fit]",

Compound,Potency,"max response, negative = inhibition"
CCc1ccc(Oc2nc3c(C)cccn3c(=O)c2/C=C(\C#N)c2nc3ccccc3s2)cc1,"inconclusive: 20 µM [inhibitor, partial curve, poor fit]",
C=CCOC(=O)C(=O)/C=C/c1coc2ccccc2c1=O,active: 14.1 µM,
COc1ccc(C=C2c3ccccc3C(=O)c3ccccc32)cc1O,"inconclusive: 79.4 µM [inhibitor, single point]",
O=C(C#Cc1ccccc1)c1ccco1,active: 22.4 µM,
C=CCOc1ccc(/C=C/C(=O)OCC(=O)NCc2ccco2)cc1,"inconclusive: 89.1 µM [inhibitor, single point]",
COc1ccccc1-c1nc(NCc2cccnc2)c2ccccc2n1,"inconclusive: 44.7 µM [inhibitor, partial curve, poor fit]",
COc1ccc2c(c1)OC/C(=C/c1ccc(OC)c(OC)c1)C2=O,active: 22.4 µM,
Cc1ccc(/C=C/S(=O)(=O)NCC(=O)OCC(=O)Nc2ccc(C(=O)N(C)C)cc2)cc1,,inactive: 17.3%
CCC(C)(C)NC(=O)C(c1cccc(OC)c1OC)N(C(=O)CCC(=O)Nc1cc(C)on1)C(C)C (stereo not given),"inconclusive: 89.1 µM [inhibitor, single point]",
Cc1cccc(NS(=O)(=O)c2c(C)nc3scc(C)n3c2=O)c1,,inactive: -1.03%
O=CN1CCc2c([nH]c3ccccc23)C1c1cccc2cccnc12 (stereo not given),"inconclusive: 35.5 µM [inhibitor, partial curve, poor fit]",
O=C(NN=Cc1cc(Cl)ccc1[N+](=O)[O-])c1cccc2ccccc12,,inactive: -17.6%
Cc1ccc(S(=O)(=O)N2CCC(C(=O)OCC(=O)N(C)C3CCS(=O)(=O)C3)CC2)cc1C (stereo not given),"inconclusive: 89.1 µM [inhibitor, single point]",
Cc1ccc(Cl)cc1NC(=O)c1ccc(NC(=O)N2CCSc3ncccc32)cc1,,inactive: 2.45%
COc1ccc(NC(=S)N2CCC(C(=O)c3ccc(C)cc3)CC2)cc1,"inconclusive: 89.1 µM [inhibitor, single point]",
O=C(O)c1ccc(/C=C(\c2nc3ccccc3[nH]2)c2nc3ccccc3s2)cc1,"inconclusive: 56.2 µM [inhibitor, partial curve, poor fit]",
CCOC(=O)c1cc(-c2ccccc2)sc1NC(=O)c1ccc(OC)cc1,active: 50.1 µM,
NCCCC[C@H](NC(=O)[C@@H]1CCCN1C(=O)[C@H](CO)NC(=O)[C@H](CC(=O)O)NC(=O)CNC(=O)[C@H](CCCN=C(N)N)NC(=O)CN)C(=O)O,,inactive: 17.1%
O=C(O)c1ccc(CN2C(=O)c3cccc4c([N+](=O)[O-])ccc(c34)C2=O)cc1,,inactive: 1.91%
CCCCC/C=C\C/C=C\C/C=C\C/C=C\CCCC(=O)O[C@@H](CO)COCCCCCCCCCCCCCCCC,,inactive: -11.7% and inactive: -10.4%
C/C(=N\NS(=O)(=O)c1ccc([N+](=O)[O-])cc1)c1cccs1,"inconclusive: 20 µM [inhibitor, single point]",
